The text below walks through data of patent US6946130 (GlaxoSmithKline, dated 2005).

Amino acid sequences for entries named in this document (tags omitted). Residues count along the entry.
UniProt P05113, residues 20-134: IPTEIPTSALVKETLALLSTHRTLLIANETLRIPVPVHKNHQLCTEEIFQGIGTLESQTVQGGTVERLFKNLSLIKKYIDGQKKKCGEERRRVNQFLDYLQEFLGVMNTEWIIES

For the test, the target named is human interleukin 5 (recombinant human IL-5, expressed in Drosophila Schneider 2 cells) (human) (UniProt P05113). The test is described as follows: colony lift assay with 125I-IL-5.

No constants are given. Whether binding was seen depends on the method and setting. Some results given as binding are weak or reduced against the parent protein; the word gives no strength. Sequences can lack the tags named with a protein.

B1: recombinant Fab containing the 2B6 heavy and light chains (Fd fused to hexa-His) (Fab)
heavy (part 1 of 2): QVQLKESGPGLVAPSQSLSITCTVSGFSLTSYSVHWVRQPPGKGLEWLGVIWASGGTDYNSALMSRLSISKDNSKSQVFLKLNSLQTDDTAMYYCARDPPSSLLRLDYWGQGTTLTVSS
heavy (part 2 of 2): HHHHHH
light: DIVMTQSPSSLSVSAGEKVTMSCKSSQSLLNSGNQKNYLAWYQQKPGQPPKLLIYGASTRESGVPDRFTGSGSGTDFTLSISSVQAEDLAVYYCQNVHSFPFTFGSGTELEIK
notes: Expressed in E. coli from pMKFabGene3H after removal of gene III; also called Fab fragment from 2B6; 2B6 Fab; not shown: murine CH1 (rest of the 2B6 Fd); murine kappa constant region
For B1, the binding entry is on record as “binds”.
